PubChem BioAssay AID1259308, NCATS | 2017

- Aim: 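Genes whose loss raises luciferase production in HEK293 cells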 (primary screen)
- System: human HEK293 embryonic kidney cells stably expressing firefly luciferase (HEK-CMV-Luc2-Hygro)
- Knock-down reagent: single siRNA against human genes, 0.8 pmol siRNA per well
- Timing: 72 h
- Detection: 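Luciferase light (ONE-Glo) measured on one replicate plate set and viability (CellTiter-Glo) on the other, scaled to a negative control siRNA, with robust z-scores and luciferase per cell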
- Direction: total luciferase, z-score and total luciferase, % of control: higher = more reporter protein produced; luciferase per cell, z-score: higher = more reporter output per viable cell
- Call rule: 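Active when the median/MAD z-score for overall luciferase is greater than 3; a gene was taken forward for validation with new siRNAs if at least two of its three siRNAs passed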
- Meaning of the calls: active = raised luciferase; inactive = no rise
The whole screen tested about 59,000 reagents; below is a part drawn at random. Over the whole deposit, about 1,510 (2.6%) were called active. 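Calls use total luciferase alone and ignore viability, so some active siRNAs may act by altering cell number.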 The numbers tell different reagents against one gene apart. Further read-outs or replicates are left out here.

total luciferase, z-score	total luciferase, % of control	luciferase per cell, z-score	Call	gene	siRNA no.
0.524	92.3	0.0134	inactive	RPL6P16 (ribosomal protein L6 pseudogene 16)	1
-0.245	77	-0.302	inactive	RPL6P16 (ribosomal protein L6 pseudogene 16)	2
1.05	103	0.468	inactive	RPL6P16 (ribosomal protein L6 pseudogene 16)	3
-2.87	24.8	-2.27	inactive	SH3KBP1 (SH3 domain containing kinase binding protein 1)	1
1.17	105	1.48	inactive	SH3KBP1 (SH3 domain containing kinase binding protein 1)	2
-0.0424	81	-0.18	inactive	SH3KBP1 (SH3 domain containing kinase binding protein 1)	3
1.73	116	1.41	inactive	AMER3 (APC membrane recruitment protein 3)	1
-0.0719	80.5	0.255	inactive	AMER3 (APC membrane recruitment protein 3)	2
-0.986	62.3	0.483	inactive	AMER3 (APC membrane recruitment protein 3)	3
0.0237	82.4	-0.0457	inactive	MAPK10 (mitogen-activated protein kinase 10)	1
-1.11	59.7	-1.72	inactive	MAPK10 (mitogen-activated protein kinase 10)	2
2.37	129	1.46	inactive	MAPK10 (mitogen-activated protein kinase 10)	3
-1.36	54.9	-1.29	inactive	HDAC4 (histone deacetylase 4)	1
0.866	99.1	0.798	inactive	HDAC4 (histone deacetylase 4)	2
-2.19	38.2	-2.31	inactive	HDAC4 (histone deacetylase 4)	3
-0.33	75.3	-1	inactive	HDAC4 (histone deacetylase 4)	4
-0.38	74.3	-0.681	inactive	HDAC4 (histone deacetylase 4)	5
-0.329	75.3	-0.402	inactive	HDAC4 (histone deacetylase 4)	6
5.21	186	3.25	active	ZNF626 (zinc finger protein 626)	1
1.05	103	0.501	inactive	ZNF626 (zinc finger protein 626)	2
-0.182	78.3	-0.737	inactive	ZNF626 (zinc finger protein 626)	3
-0.711	67.7	0.496	inactive	LINC00520 (long independently transcribed non-coding RNA 520)	1
-0.568	70.6	0.684	inactive	LINC00520 (long independently transcribed non-coding RNA 520)	2
0.421	90.3	0.187	inactive	LINC00520 (long independently transcribed non-coding RNA 520)	3
0.128	84.4	0.0793	inactive	FBXL16 (F-box and leucine rich repeat protein 16)	1
1.99	121	2.17	inactive	FBXL16 (F-box and leucine rich repeat protein 16)	2
0.729	96.4	0.353	inactive	FBXL16 (F-box and leucine rich repeat protein 16)	3
-0.213	77.6	-0.177	inactive	CXXC5 (CXXC finger protein 5)	1
-0.646	69	-0.584	inactive	CXXC5 (CXXC finger protein 5)	2
-0.27	76.5	0.273	inactive	CXXC5 (CXXC finger protein 5)	3
0.00337	82	0.0304	inactive	SLC8A2	1
0.235	86.6	1.4	inactive	SLC8A2	2
0.28	87.5	0.268	inactive	SLC8A2	3
-0.582	70.3	-0.11	inactive	CSPG4P5 (chondroitin sulfate proteoglycan 4 pseudogene 5)	1
0.197	85.8	-0.33	inactive	CSPG4P5 (chondroitin sulfate proteoglycan 4 pseudogene 5)	2
0.398	89.8	0.289	inactive	CSPG4P5 (chondroitin sulfate proteoglycan 4 pseudogene 5)	3
-0.0691	80.5	-0.275	inactive	KCTD16 (potassium channel tetramerization domain containing 16)	1
0.175	85.4	-0.253	inactive	KCTD16 (potassium channel tetramerization domain containing 16)	2
0.872	99.2	0.451	inactive	KCTD16 (potassium channel tetramerization domain containing 16)	3
3.16	145	2.48	active	SLC30A10	1
0.824	98.3	0.721	inactive	SLC30A10	2
1.94	120	2.01	inactive	SLC30A10	3
0.163	85.1	2.44	inactive	TRIM75 (tripartite motif containing 75)	1
1.32	108	1.01	inactive	TRIM75 (tripartite motif containing 75)	2
0.0648	83.2	-1.18	inactive	TRIM75 (tripartite motif containing 75)	3
0.268	87.2	0.0162	inactive	NDUFC2 (NADH:ubiquinone oxidoreductase subunit C2)	1
-0.453	72.9	-0.278	inactive	NDUFC2 (NADH:ubiquinone oxidoreductase subunit C2)	2
0.0211	82.3	-0.046	inactive	NDUFC2 (NADH:ubiquinone oxidoreductase subunit C2)	3
1.11	104	0.549	inactive	VPREB3 (V-set pre-B cell surrogate light chain 3)	1
0.36	89	0.183	inactive	VPREB3 (V-set pre-B cell surrogate light chain 3)	2
0.371	89.3	0.258	inactive	VPREB3 (V-set pre-B cell surrogate light chain 3)	3
-1.26	56.8	-1.63	inactive	COMP (cartilage oligomeric matrix protein)	1
0.994	102	1.44	inactive	COMP (cartilage oligomeric matrix protein)	2
0.566	93.1	1	inactive	COMP (cartilage oligomeric matrix protein)	3
1.39	110	1.99	inactive	OR4D9 (olfactory receptor family 4 subfamily D member 9)	1
-0.102	79.9	-0.0932	inactive	OR4D9 (olfactory receptor family 4 subfamily D member 9)	2
0.735	96.5	-0.145	inactive	OR4D9 (olfactory receptor family 4 subfamily D member 9)	3

8 successive entries already listed:
total luciferase, z-score	total luciferase, % of control	luciferase per cell, z-score	Call	gene	siRNA no.
0.36	89	0.183	inactive	VPREB3 (V-set pre-B cell surrogate light chain 3)	2
0.371	89.3	0.258	inactive	VPREB3 (V-set pre-B cell surrogate light chain 3)	3
-1.26	56.8	-1.63	inactive	COMP (cartilage oligomeric matrix protein)	1
0.994	102	1.44	inactive	COMP (cartilage oligomeric matrix protein)	2
0.566	93.1	1	inactive	COMP (cartilage oligomeric matrix protein)	3
1.39	110	1.99	inactive	OR4D9 (olfactory receptor family 4 subfamily D member 9)	1
-0.102	79.9	-0.0932	inactive	OR4D9 (olfactory receptor family 4 subfamily D member 9)	2
0.735	96.5	-0.145	inactive	OR4D9 (olfactory receptor family 4 subfamily D member 9)	3
